Results from the supplement of paper PMC10849652.
This is one part of the list.

The chains behind the UniProt entries cited, without tags or fusion partners. Where a name states a change or a piece, a line headed by the entry shows the natural chain unless it says otherwise.
UniProt O60306: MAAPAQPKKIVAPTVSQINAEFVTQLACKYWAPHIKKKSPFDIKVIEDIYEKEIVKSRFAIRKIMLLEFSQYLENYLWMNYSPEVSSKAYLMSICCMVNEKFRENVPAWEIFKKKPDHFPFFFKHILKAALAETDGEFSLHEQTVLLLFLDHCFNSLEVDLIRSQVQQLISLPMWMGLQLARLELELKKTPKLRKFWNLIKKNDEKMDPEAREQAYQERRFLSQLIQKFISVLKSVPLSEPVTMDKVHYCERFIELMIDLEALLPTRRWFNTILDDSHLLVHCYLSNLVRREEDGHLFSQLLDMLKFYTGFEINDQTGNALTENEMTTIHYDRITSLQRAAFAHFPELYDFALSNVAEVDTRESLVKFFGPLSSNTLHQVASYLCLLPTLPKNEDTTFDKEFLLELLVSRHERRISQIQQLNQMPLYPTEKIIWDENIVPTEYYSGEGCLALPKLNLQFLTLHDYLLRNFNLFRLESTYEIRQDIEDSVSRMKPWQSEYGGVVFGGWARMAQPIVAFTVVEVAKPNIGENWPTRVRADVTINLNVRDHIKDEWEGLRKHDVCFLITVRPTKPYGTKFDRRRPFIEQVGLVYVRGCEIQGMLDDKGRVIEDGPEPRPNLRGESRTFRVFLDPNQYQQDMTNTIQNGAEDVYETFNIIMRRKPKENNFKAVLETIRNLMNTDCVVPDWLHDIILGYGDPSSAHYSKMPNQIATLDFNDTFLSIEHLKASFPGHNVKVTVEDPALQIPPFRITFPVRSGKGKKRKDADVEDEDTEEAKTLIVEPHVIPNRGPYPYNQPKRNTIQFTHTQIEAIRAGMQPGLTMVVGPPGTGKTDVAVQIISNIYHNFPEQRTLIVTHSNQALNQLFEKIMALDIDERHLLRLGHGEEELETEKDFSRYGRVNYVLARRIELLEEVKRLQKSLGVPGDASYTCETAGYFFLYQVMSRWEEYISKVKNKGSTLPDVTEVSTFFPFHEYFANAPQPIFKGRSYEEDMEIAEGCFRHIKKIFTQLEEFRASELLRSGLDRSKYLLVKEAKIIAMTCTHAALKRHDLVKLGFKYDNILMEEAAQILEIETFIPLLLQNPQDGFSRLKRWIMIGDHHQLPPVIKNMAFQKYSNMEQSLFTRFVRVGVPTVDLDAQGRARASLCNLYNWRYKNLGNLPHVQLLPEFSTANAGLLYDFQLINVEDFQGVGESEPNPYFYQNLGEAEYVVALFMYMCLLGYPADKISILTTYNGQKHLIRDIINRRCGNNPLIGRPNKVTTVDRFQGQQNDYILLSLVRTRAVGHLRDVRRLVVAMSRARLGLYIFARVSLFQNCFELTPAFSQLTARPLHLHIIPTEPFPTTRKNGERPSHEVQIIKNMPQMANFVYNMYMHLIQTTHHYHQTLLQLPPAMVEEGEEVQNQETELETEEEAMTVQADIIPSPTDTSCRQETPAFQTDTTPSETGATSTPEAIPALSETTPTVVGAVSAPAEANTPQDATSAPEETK
UniProt P52566: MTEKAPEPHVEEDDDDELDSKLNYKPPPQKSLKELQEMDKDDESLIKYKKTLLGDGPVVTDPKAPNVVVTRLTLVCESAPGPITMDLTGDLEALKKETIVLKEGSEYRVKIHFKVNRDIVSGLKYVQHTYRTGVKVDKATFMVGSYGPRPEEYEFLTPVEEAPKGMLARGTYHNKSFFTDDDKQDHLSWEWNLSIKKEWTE
UniProt Q8IV38: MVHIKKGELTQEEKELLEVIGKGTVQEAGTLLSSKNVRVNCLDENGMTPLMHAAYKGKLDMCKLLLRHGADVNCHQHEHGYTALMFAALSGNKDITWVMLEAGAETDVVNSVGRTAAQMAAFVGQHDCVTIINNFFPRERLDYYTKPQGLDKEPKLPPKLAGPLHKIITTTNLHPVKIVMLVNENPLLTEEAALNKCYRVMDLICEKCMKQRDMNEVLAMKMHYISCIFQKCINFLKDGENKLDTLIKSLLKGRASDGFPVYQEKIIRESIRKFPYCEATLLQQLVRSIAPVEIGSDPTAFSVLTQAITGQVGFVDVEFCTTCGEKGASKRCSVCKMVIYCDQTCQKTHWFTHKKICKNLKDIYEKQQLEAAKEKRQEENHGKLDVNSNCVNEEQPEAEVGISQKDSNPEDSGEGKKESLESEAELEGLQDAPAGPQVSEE
UniProt Q9Y4X5: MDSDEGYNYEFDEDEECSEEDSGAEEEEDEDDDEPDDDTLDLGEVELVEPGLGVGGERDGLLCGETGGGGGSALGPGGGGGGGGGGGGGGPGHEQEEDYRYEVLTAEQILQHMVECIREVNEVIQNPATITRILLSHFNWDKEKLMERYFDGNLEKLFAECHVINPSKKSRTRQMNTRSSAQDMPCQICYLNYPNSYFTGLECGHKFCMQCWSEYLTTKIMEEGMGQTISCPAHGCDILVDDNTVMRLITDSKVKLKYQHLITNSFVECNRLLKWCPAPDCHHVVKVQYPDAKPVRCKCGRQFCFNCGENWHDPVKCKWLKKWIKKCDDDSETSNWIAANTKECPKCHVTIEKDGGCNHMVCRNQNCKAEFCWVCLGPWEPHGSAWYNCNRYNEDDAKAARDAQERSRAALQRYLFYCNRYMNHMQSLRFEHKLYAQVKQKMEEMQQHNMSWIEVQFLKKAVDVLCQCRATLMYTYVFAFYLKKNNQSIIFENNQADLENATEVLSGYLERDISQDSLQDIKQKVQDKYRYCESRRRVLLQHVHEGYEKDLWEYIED
UniProt Q9UPM8: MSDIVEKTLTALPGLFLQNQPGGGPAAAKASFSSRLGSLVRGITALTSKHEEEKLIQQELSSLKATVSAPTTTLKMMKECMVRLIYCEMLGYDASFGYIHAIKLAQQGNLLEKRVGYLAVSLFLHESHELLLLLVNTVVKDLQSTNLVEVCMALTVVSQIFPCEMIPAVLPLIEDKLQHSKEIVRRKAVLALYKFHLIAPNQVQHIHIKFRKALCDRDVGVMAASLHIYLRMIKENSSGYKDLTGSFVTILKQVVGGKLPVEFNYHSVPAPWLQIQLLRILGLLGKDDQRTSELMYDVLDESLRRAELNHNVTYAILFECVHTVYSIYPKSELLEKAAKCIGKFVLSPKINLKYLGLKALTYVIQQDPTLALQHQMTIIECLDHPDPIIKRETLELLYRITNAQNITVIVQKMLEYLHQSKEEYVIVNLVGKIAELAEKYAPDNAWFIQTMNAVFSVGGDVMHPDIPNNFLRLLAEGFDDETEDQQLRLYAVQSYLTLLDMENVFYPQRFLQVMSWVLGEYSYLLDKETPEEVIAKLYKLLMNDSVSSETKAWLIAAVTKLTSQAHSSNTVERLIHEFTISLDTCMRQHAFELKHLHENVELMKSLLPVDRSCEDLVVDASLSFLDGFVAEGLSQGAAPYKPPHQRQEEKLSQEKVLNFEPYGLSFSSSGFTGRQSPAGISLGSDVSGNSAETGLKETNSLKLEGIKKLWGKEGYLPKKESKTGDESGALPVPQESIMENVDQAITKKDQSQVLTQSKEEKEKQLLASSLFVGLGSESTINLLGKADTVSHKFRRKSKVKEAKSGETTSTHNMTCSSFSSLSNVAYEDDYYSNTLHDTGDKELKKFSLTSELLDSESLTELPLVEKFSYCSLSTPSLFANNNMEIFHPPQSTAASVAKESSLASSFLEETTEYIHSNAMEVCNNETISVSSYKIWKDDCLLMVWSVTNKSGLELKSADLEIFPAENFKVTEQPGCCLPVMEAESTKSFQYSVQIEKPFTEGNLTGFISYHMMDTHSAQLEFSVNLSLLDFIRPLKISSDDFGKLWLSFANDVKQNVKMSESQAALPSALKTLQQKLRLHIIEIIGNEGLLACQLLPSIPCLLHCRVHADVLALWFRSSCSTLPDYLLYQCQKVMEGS
UniProt Q9UJX3, whole entry, looked up: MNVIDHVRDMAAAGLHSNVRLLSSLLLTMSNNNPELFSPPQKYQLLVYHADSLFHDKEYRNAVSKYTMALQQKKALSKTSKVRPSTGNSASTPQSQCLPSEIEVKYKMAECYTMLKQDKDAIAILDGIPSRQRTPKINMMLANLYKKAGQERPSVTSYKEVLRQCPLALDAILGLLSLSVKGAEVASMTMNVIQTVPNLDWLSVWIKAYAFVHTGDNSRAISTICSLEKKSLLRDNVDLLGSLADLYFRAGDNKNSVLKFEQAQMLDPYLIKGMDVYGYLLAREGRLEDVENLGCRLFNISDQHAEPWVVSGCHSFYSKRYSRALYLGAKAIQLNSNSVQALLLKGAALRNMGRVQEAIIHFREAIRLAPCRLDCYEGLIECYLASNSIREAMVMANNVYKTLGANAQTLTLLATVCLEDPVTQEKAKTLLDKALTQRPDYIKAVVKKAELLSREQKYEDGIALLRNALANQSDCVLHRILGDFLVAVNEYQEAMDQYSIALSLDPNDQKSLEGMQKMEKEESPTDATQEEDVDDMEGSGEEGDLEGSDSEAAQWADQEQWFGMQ
UniProt Q92619: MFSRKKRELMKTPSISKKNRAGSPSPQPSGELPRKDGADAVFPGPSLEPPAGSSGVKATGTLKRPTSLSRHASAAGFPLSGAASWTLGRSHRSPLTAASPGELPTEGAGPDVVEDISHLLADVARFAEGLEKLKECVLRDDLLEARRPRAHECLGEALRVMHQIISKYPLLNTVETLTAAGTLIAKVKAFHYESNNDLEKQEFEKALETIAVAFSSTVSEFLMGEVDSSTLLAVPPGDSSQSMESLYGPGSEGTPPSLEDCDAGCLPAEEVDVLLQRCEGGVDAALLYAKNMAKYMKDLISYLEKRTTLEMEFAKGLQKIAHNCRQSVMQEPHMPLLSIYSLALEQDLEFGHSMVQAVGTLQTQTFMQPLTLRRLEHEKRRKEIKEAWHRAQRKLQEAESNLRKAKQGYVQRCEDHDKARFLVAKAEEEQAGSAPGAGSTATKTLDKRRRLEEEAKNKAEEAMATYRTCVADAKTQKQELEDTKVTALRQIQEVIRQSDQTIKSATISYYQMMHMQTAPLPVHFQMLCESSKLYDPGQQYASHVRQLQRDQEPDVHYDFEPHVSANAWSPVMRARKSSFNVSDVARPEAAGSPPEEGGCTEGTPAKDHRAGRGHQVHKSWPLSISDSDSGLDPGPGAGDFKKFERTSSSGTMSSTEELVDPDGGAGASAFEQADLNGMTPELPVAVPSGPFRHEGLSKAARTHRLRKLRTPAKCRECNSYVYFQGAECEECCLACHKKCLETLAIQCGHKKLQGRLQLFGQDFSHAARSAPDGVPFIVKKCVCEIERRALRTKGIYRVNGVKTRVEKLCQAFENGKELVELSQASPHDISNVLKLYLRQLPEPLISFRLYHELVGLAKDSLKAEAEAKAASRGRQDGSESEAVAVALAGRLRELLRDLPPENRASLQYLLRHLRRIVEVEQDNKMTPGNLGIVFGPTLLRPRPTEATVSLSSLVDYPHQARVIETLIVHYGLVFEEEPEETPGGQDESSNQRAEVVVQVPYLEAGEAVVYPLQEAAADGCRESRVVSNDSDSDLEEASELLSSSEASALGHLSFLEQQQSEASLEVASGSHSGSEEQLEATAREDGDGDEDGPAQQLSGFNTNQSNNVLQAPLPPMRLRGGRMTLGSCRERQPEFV
UniProt P07741: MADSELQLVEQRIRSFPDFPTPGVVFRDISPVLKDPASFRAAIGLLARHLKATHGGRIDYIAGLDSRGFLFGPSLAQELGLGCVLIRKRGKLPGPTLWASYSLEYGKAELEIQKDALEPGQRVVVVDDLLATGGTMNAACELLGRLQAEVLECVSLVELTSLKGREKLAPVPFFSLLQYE
UniProt Q8IWW6: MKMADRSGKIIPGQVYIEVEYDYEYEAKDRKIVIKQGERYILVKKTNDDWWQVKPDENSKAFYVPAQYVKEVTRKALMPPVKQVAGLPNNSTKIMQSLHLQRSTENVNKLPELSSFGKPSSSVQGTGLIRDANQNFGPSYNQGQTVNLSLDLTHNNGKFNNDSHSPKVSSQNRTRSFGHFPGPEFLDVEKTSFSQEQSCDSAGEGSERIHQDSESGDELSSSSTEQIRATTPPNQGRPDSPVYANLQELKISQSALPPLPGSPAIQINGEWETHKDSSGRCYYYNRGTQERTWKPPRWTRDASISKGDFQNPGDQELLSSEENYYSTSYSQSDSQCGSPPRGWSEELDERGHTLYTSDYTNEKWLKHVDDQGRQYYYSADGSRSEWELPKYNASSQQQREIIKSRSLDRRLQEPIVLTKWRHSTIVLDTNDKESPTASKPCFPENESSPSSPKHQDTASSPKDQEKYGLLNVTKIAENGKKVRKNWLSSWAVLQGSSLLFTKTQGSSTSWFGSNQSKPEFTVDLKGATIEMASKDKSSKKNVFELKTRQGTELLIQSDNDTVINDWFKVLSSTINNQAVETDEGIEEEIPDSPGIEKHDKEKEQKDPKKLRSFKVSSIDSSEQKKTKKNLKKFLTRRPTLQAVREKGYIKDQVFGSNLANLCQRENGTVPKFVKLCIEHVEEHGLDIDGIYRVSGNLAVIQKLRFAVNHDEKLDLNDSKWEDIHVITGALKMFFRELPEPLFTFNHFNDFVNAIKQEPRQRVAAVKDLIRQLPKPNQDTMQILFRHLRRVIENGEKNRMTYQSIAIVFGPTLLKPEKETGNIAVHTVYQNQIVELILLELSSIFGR

What was measured:
Assay in all cases: log2 fold change, soluble protein after heating vs DMSO (PISA); higher = thermal stabilisation; K562 cells, 10 uM, 30 min; active = over 0.2 and 3.5 SD of the protein, either way, in both replicates (recomputed)
[1] = compound: CS(=O)(=O)c1ccc(-c2cnc(N)c(C(=O)Nc3ccccc3)n2)cc1
Procedure, shortened: (§1)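 K562 cells (2×10^6 cells/mL) were treated with 10 μM compound for 30 min, and aliquots were heated for 3 min over 48°C-58°C. Pooled aliquots were extracted in PBS with 0.5% NP-40 at 4°C, and the supernatant after 21,000xg for 90 min was measured by TMTpro 16plex LC-MS/MS with channel sums equalised. Reported thermal stability, relative to control samples and from duplicates, is a log2 fold change.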

crizotinib = compound: C[C@@H](Oc1cc(-c2cnn(C3CCNCC3)c2)cnc1N)c1c(Cl)ccc(F)c1Cl [crizotinib]
Procedure, shortened: as §1

[2] = compound: C[C@@H]1COCCN1C2=NC(=NC(=C2)C3(CC3)S(=O)(=O)C)C4=C5C=CNC5=CC=C4
Procedure, shortened: as §1

[3] = compound: C[C@H](C1=CC=C(C=C1)C(=O)NC2=C3C=CNC3=NC=C2)N
Procedure, shortened: as §1

duvelisib = compound: C[C@H](Nc1ncnc2nc[nH]c12)c1cc2cccc(Cl)c2c(=O)n1-c1ccccc1 [duvelisib]
Procedure, shortened: as §1

gandotinib = compound: Cc1cc(Nc2cc(CN3CCOCC3)c3nc(C)c(Cc4ccc(Cl)cc4F)n3n2)n[nH]1 [gandotinib]
Procedure, shortened: as §1

tozasertib = compound: Cc1cc(Nc2cc(N3CCN(C)CC3)nc(Sc3ccc(NC(=O)C4CC4)cc3)n2)n[nH]1 [tozasertib]
Procedure, shortened: as §1

[4] = compound: Cc1cc(SCc2sc(-c3ccc(C(F)(F)F)cc3)nc2C)ccc1OCC(=O)O
Procedure, shortened: as §1

doramapimod = compound: Cc1ccc(-n2nc(C(C)(C)C)cc2NC(=O)Nc2ccc(OCCN3CCOCC3)c3ccccc23)cc1 [doramapimod]
Procedure, shortened: as §1

ispinesib = compound: Cc1ccc(C(=O)N(CCCN)[C@@H](c2nc3cc(Cl)ccc3c(=O)n2Cc2ccccc2)C(C)C)cc1 [ispinesib]
Procedure, shortened: as §1

bafetinib = compound: Cc1ccc(NC(=O)c2ccc(CN3CC[C@H](N(C)C)C3)c(C(F)(F)F)c2)cc1Nc1nccc(-c2cncnc2)n1 [bafetinib]
Procedure, shortened: as §1

[5] = compound: Cc1cccc(CC(=O)N2CCc3c2ccc(-c2cn(C)c4ncnc(N)c24)c3F)n1
Procedure, shortened: as §1

nilotinib = compound: Cc1cn(-c2cc(NC(=O)c3ccc(C)c(Nc4nccc(-c5cccnc5)n4)c3)cc(C(F)(F)F)c2)cn1 [nilotinib]
Procedure, shortened: as §1

[6] = compound: Cc1nc(Nc2n[nH]c3c2CN(C(=O)N[C@H](CN(C)C)c2ccccc2)C3(C)C)c2sccc2n1
Procedure, shortened: as §1

dasatinib = compound: Cc1nc(Nc2ncc(C(=O)Nc3c(C)cccc3Cl)s2)cc(N2CCN(CCO)CC2)n1 [dasatinib]
Procedure, shortened: as §1

[7] = compound: Cc1ncc(-c2ccnc(Nc3ccc(S(C)(=O)=O)cc3)n2)n1C(C)C
Procedure, shortened: as §1

[8] = compound: Cn1cc(-c2ccc3c(c2)CCN3C(=O)Cc2cccc(C(F)(F)F)c2)c2c(N)ncnc21
Procedure, shortened: as §1

[9] = compound: Cn1cc(-c2ccc3nnc(C(F)(F)c4ccc5ncccc5c4)n3n2)cn1
Procedure, shortened: as §1

tipifarnib = compound: Cn1cncc1[C@@](N)(c1ccc(Cl)cc1)c1ccc2c(c1)c(-c1cccc(Cl)c1)cc(=O)n2C [tipifarnib]
Procedure, shortened: as §1

mubritinib = compound: FC(F)(F)c1ccc(/C=C/c2nc(COc3ccc(CCCCn4ccnn4)cc3)co2)cc1 [mubritinib]
Procedure, shortened: as §1

Measured: log2 fold change

ANKRD54 (UniProt Q6NXT1)
inactive: [1] -0.001 | crizotinib 0.002 | [2] 0.08 | [3] -0.113 | duvelisib -0.127 | gandotinib -0.052 | tozasertib 0.017 | [4] 0.087 | doramapimod 0.024 | ispinesib 0.014 | bafetinib -0.086 | [5] 0.026 | nilotinib 0.043 | [6] 0.093 | dasatinib -0.206 | [7] -0.098 | [8] 0.004 | [9] -0.003 | tipifarnib -0.028 | mubritinib 0.051

AQR (UniProt O60306)
inactive: [1] 0.036 | crizotinib -0.183 | [2] -0.003 | [3] 0.258 | duvelisib -0.092 | gandotinib -0.006 | tozasertib -0.121 | [4] 0.114 | doramapimod 0.128 | ispinesib -0.116 | [5] -0.047 | dasatinib -0.049 | [8] -0.162 | [9] -0.096 | tipifarnib 0.023 | mubritinib 0.033

ANAPC4 isoform 3 (UniProt Q9UJX5)
inactive: [1] 0.03 | crizotinib 0.014 | [2] -0.069 | [3] -0.067 | duvelisib -0.008 | gandotinib 0.039 | tozasertib 0.016 | [4] 0.015 | doramapimod 0.012 | ispinesib 0.016 | bafetinib 0.043 | [5] -0.003 | nilotinib -0.013 | [6] 0.004 | dasatinib -0.005 | [7] -0.039 | [8] -0.057 | [9] -0.1 | tipifarnib 0.012 | mubritinib 0.016

ANK3 (UniProt Q12955)
inactive: [1] 0.031 | crizotinib -0.198 | [2] -0.01 | [3] 0.245 | duvelisib 0.009 | gandotinib -0.081 | tozasertib 0.066 | [4] 0.035 | doramapimod 0.298 | ispinesib 0.046 | bafetinib -0.244 | [5] -0.242 | nilotinib -0.092 | [6] 0.042 | dasatinib -0.018 | [7] -0.033 | [8] -0.011 | [9] 0.038 | tipifarnib 0.044 | mubritinib 0.041

APTX (UniProt Q7Z2E3)
inactive: [1] 0.126 | crizotinib 0.051 | [2] -0.062 | [3] 0.174 | duvelisib 0.059 | gandotinib -0.083 | [4] 0.096 | doramapimod -0.038 | [5] -0.113 | dasatinib -0.026 | [8] -0.011

AP5M1 (UniProt Q9H0R1)
inactive: [1] 0.079 | crizotinib -0.036 | [2] -0.062 | [3] 0.101 | duvelisib -0.057 | gandotinib 0.057 | [4] 0.014 | doramapimod -0.073 | ispinesib -0.109 | bafetinib 0.083 | [5] -0.033 | nilotinib 0.024 | [6] -0.002 | dasatinib -0.002 | [7] 0.007 | [8] -0.106 | [9] 0.114 | tipifarnib -0.009 | mubritinib -0.473

ARHGDIB (UniProt P52566)
inactive: [1] 0.004 | crizotinib 0.06 | [2] 0.091 | [3] -0.037 | duvelisib 0.066 | gandotinib 0.019 | tozasertib -0.105 | [4] -0.012 | doramapimod -0.029 | ispinesib 0.016 | bafetinib -0.035 | [5] -0.026 | nilotinib -0.023 | [6] -0.032 | dasatinib -0.001 | [7] -0.002 | [8] 0.043 | [9] 0.009 | tipifarnib 0 | mubritinib 0.078

ANKMY2 (UniProt Q8IV38)
inactive: [1] -0.033 | crizotinib 0.03 | [2] 0.086 | [3] 0.009 | duvelisib 0.031 | gandotinib -0.042 | tozasertib 0.014 | [4] 0.035 | doramapimod -0.028 | ispinesib 0.064 | bafetinib -0.017 | [5] 0.084 | nilotinib -0.03 | [6] 0.012 | dasatinib -0.071 | [7] 0.006 | [8] -0.005 | [9] -0.021 | tipifarnib -0.064 | mubritinib -0.017

APOBEC3D (UniProt Q96AK3)
inactive: [1] -0.075 | crizotinib -0.194 | [2] -0.358 | [3] 0.196 | duvelisib -0.286 | tozasertib -0.022 | [4] -0.015 | doramapimod 0.074 | ispinesib -0.092 | bafetinib 0.027 | dasatinib 0.008 | [8] -0.211 | [9] -0.086 | tipifarnib 0.183 | mubritinib -0.107

ARIH1 (UniProt Q9Y4X5)
inactive: [1] 0.019 | crizotinib 0.052 | [2] 0.077 | [3] -0.081 | duvelisib 0.071 | gandotinib 0.03 | tozasertib -0.013 | [4] 0.022 | doramapimod -0.045 | ispinesib 0.002 | bafetinib -0.059 | [5] 0 | nilotinib -0.006 | [6] 0.019 | dasatinib -0.01 | [7] 0 | [8] -0.005 | [9] -0.041 | tipifarnib -0.062 | mubritinib 0.013

AP4E1 (UniProt Q9UPM8)
inactive: [1] 0.037 | crizotinib -0.055 | [2] 0.011 | [3] 0.113 | duvelisib 0.224 | gandotinib -0.096 | tozasertib -0.021 | [4] 0.023 | doramapimod -0.014 | ispinesib -0.078 | bafetinib 0.082 | [5] 0.066 | nilotinib -0.035 | [6] -0.435 | dasatinib -0.028 | [7] -0.003 | [8] -0.177 | [9] 0.011 | tipifarnib -0.162 | mubritinib 0.05

API5 (UniProt Q9BZZ5)
inactive: [1] 0.014 | crizotinib 0.013 | [2] 0.079 | [3] -0.026 | duvelisib 0.019 | gandotinib -0.013 | tozasertib -0.014 | [4] -0.019 | doramapimod -0.046 | ispinesib 0.101 | bafetinib -0.023 | [5] 0.006 | nilotinib -0.004 | [6] 0 | dasatinib -0.009 | [7] 0.003 | [8] 0.028 | [9] -0.002 | tipifarnib -0.006 | mubritinib 0.029

ANAPC7 (UniProt Q9UJX3)
inactive: [1] 0.002 | crizotinib -0.017 | [2] 0.024 | [3] -0.034 | duvelisib -0.038 | gandotinib -0.026 | tozasertib 0.037 | [4] 0.028 | doramapimod 0.01 | ispinesib 0.008 | bafetinib 0.028 | [5] 0.056 | nilotinib -0.025 | [6] -0.011 | dasatinib -0.066 | [7] -0.052 | [8] -0.002 | [9] -0.056 | tipifarnib 0.006 | mubritinib -0.04

Quoted from the results shown (2 entries):
ARIH1 (UniProt Q9Y4X5)
inactive: [1] 0.019 | crizotinib 0.052 | [2] 0.077 | [3] -0.081 | duvelisib 0.071 | gandotinib 0.03 | tozasertib -0.013 | [4] 0.022 | doramapimod -0.045 | ispinesib 0.002 | bafetinib -0.059 | [5] 0 | nilotinib -0.006 | [6] 0.019 | dasatinib -0.01 | [7] 0 | [8] -0.005 | [9] -0.041 | tipifarnib -0.062 | mubritinib 0.013

AP4E1 (UniProt Q9UPM8)
inactive: [1] 0.037 | crizotinib -0.055 | [2] 0.011 | [3] 0.113 | duvelisib 0.224 | gandotinib -0.096 | tozasertib -0.021 | [4] 0.023 | doramapimod -0.014 | ispinesib -0.078 | bafetinib 0.082 | [5] 0.066 | nilotinib -0.035 | [6] -0.435 | dasatinib -0.028 | [7] -0.003 | [8] -0.177 | [9] 0.011 | tipifarnib -0.162 | mubritinib 0.05

Going on with the list:

ARHGAP45 isoform 2 (UniProt Q92619)
inactive: [1] 0.053 | crizotinib 0.062 | [2] -0.066 | [3] 0.015 | duvelisib 0.021 | gandotinib -0.092 | tozasertib -0.018 | [4] 0.006 | doramapimod 0.087 | ispinesib -0.02 | bafetinib -0.052 | [5] -0.036 | nilotinib 0.001 | [6] -0.076 | dasatinib -0.063 | [7] 0.063 | [8] 0.015 | [9] -0.02 | tipifarnib 0.043 | mubritinib 0.042

APRT (UniProt P07741)
inactive: [1] 0.015 | crizotinib 0.083 | [2] 0.103 | [3] -0.043 | duvelisib 0.063 | gandotinib 0.022 | tozasertib -0.008 | [4] -0.012 | doramapimod -0.007 | ispinesib -0.017 | bafetinib -0.045 | [5] -0.061 | nilotinib -0.019 | [6] 0.01 | dasatinib 0.051 | [7] -0.017 | [8] 0.027 | [9] 0.042 | tipifarnib -0.011 | mubritinib 0.009

ARHGAP12 (UniProt Q8IWW6)
inactive: [1] 0.075 | crizotinib 0.067 | [2] -0.057 | [3] 0.041 | duvelisib 0.02 | gandotinib -0.069 | tozasertib -0.01 | [4] 0.004 | doramapimod 0.029 | ispinesib -0.13 | bafetinib -0.074 | [5] 0.034 | nilotinib -0.041 | [6] -0.154 | dasatinib -0.079 | [7] -0.029 | [8] 0.032 | [9] 0.017 | tipifarnib 0.009 | mubritinib 0.117

AP1G1 isoform 2 (UniProt O43747)
inactive: [1] -0.004 | crizotinib 0.012 | [2] 0.039 | [3] 0.026 | duvelisib 0.03 | gandotinib -0.013 | tozasertib 0.119 | [4] 0.101 | doramapimod -0.003 | ispinesib 0.014 | bafetinib 0.001 | [5] 0.047 | nilotinib -0.034 | [6] -0.023 | dasatinib -0.102 | [7] 0.024 | [8] 0.004 | [9] -0.021 | tipifarnib -0.082 | mubritinib 0.044
